This note sets out measurements from paper PMC5436907.

The chains behind the UniProt entries cited, without tags or fusion partners. Residues count along the entry.
UniProt Q9Z0F8, residues 215-827: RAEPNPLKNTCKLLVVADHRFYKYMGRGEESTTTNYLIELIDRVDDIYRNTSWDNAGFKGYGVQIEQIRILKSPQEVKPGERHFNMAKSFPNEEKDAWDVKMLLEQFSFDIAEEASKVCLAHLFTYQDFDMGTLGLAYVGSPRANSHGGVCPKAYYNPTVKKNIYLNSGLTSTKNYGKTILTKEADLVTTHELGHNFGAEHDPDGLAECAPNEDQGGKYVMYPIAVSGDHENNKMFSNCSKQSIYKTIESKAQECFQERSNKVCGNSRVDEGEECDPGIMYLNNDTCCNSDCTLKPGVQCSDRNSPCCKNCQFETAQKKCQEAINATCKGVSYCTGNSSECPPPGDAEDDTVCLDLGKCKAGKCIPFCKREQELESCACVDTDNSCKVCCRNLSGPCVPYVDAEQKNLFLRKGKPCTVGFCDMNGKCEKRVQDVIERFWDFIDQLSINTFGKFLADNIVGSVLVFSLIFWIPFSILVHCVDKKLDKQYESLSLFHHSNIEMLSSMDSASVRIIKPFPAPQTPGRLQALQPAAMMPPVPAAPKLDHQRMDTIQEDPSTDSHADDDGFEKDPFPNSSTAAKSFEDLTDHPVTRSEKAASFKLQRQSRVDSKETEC

Positions count from the first letter of the chain named. Results are given in words; binding and its absence hold for the method and conditions named. Binding seen in cells or lysates may run through a third protein. Some entries that bind do so weakly or less than the wild type.

The target in assay [1] is T1, mouse iRhom2^Site1-3-3xHA (mouse) (UniProt Q80WQ6).
T1 sequence: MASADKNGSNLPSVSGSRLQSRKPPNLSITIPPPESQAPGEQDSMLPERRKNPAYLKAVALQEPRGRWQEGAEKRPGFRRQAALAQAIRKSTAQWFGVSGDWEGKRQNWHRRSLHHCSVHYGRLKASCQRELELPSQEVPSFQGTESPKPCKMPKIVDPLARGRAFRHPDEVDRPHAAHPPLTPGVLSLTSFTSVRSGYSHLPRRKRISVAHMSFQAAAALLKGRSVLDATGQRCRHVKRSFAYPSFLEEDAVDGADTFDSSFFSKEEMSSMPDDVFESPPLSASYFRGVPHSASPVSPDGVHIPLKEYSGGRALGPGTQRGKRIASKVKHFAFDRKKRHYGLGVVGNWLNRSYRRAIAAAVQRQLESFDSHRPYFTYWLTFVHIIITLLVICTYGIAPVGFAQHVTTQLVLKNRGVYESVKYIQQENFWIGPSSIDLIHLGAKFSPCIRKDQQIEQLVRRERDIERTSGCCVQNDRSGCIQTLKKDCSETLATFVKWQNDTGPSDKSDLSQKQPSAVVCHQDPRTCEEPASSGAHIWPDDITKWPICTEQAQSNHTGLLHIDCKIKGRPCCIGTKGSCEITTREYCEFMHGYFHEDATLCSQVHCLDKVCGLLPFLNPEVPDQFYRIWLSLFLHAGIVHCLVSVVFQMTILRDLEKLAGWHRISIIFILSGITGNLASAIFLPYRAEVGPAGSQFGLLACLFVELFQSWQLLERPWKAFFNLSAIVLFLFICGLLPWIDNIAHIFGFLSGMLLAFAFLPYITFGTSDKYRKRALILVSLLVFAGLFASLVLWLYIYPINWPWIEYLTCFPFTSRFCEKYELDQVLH
Briefly: co-IP; plasma membrane immunoprecipitation: DKO MEFs with or without 200 nM PMA for 5 min, intact cells on ice incubated with mouse anti-HA antibody for 1 hr, washed, lysed in TX-100 buffer, ProteinA-coupled agarose beads; blot for TACE.

Assay [2] deals with T1, mouse iRhom2^Site1-3-3xHA (mouse). The assay can be described thus: co-IP; DKO MEFs stably transduced with iRhom2-3xHA forms, with or without PMA (20-200 nM, 15-30 min) or histamine (300 µM, 15 min); 1% Triton X-100, 150 mM NaCl, 50 mM Tris-HCl pH 7.4; HA antibody-coupled beads, 4°C; blots for TACE and 14-3-3.
Assay [3] has as its target T2, mouse iRhom2^Site1-2-3xHA (mouse) (UniProt Q80WQ6).
T2 sequence: T1 sequence with A357S, A359S, A360S, A361T
The assay is described as above.

Assay [4] deals with T3, mouse iRhom2^R18-3xHA (mouse) (UniProt Q80WQ6).
T3 sequence: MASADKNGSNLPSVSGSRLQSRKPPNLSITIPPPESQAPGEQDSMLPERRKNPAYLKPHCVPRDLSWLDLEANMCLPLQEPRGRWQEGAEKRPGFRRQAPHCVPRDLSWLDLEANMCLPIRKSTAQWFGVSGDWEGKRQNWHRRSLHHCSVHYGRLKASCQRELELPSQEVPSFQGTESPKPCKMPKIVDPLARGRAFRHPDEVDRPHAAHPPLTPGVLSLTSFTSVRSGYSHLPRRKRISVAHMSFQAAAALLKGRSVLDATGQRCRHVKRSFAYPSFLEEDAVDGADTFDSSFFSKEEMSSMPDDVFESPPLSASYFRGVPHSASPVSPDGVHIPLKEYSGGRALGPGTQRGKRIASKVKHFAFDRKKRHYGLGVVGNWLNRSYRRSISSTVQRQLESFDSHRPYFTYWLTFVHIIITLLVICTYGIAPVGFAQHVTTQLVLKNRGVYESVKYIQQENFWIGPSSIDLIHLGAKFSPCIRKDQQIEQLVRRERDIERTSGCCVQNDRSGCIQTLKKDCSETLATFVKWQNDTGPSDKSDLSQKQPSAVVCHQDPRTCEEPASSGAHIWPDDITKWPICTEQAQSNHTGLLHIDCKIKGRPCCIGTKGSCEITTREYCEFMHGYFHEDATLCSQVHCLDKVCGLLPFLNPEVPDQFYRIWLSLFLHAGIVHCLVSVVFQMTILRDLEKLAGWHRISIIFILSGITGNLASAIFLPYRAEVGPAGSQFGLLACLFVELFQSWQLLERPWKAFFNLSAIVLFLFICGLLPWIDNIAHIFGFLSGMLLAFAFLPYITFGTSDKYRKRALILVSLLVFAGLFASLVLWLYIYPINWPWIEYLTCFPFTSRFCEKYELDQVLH
Described as above.

Assay [5] deals with T4, mouse iRhom2^ΔNT-3xHA (mouse) (UniProt Q80WQ6).
T4 sequence: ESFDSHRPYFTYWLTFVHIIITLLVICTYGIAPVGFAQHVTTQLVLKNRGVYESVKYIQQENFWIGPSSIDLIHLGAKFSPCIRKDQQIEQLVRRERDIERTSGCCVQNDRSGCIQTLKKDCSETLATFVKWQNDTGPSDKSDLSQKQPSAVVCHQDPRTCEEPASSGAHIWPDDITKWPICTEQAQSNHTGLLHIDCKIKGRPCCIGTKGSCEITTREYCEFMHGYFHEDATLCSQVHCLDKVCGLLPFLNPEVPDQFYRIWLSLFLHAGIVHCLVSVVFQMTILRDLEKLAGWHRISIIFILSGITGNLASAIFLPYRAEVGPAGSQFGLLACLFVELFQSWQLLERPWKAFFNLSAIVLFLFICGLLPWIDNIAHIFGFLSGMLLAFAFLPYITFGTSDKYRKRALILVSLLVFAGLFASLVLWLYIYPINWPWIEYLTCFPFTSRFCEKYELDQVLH
Briefly: co-IP; WT MEFs transduced with HA-tagged iRhom2 forms; HA immunoprecipitates probed for TACE.

Turning to “mature TACE (from UniProt Q9Z0F8 215-827) (enzyme)”, the binding result is “binds” in assay [1]; “binds” in assay [2]; “binds” in assay [3]; “binds” in assay [4]; “no binding” in assay [5].
